pIC50: −log10 of the molar value. Where a name gives a salt, the structure may show the parent alone. Read-outs that look alike come from different tables or passages of the source. Some entries share one result that the patent states for a list of compounds.
Molecular target: T1, bacterial PDF (S. aureus or E. coli PDF, Def1 enzyme) (UniProt P68826)
T1 sequence (P68826 1-183): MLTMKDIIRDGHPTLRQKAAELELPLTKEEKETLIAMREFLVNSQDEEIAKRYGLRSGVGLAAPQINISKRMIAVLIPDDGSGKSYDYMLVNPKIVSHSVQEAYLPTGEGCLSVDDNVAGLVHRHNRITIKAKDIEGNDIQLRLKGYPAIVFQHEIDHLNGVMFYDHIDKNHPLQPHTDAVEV
Experiment: Bacterial PDF Assay (formate dehydrogenase-coupled continuous enzyme-linked assay)
Format: biochemical

[1] = 25° C., substrate f-Met-Ala-Ser at KM, read-out: IC50 against bacterial PDF
[2] = read-out: IC50 against bacterial PDF, 25° C., substrate f-Met-Ala-Ser at KM

COc1ccc(NC(=O)NC(=O)[C@@H]2CCCN2C(=O)[C@H](CC2CCCC2)CN(O)C=O)cc1 [Example 73, 1-((2R)-3-cyclopentyl-2-{[formyl(hydroxy)amino]methyl}propanoyl)-N-({[4-(methyloxy)phenyl]amino}carbonyl)-L-prolinamide]
pIC50 [1]: ≥ 7.00

O=CN(O)C[C@@H](CC1CCCC1)C(=O)N1CCC[C@H]1C(=O)NC(=O)c1ccncc1 [Example 17, N-[1-((2R)-3-cyclopentyl-2-{[formyl(hydroxy)amino]methyl}propanoyl)-L-prolyl]-4-pyridinecarboxamide]
pIC50 [2]: ≥ 7.00

CC1(C)CCN(C(=O)[C@H](CC2CCCC2)CN(O)C=O)[C@@H]1C(=O)NC(=O)OC1CCC1 [Example 135, N-[(cyclobutyloxy)carbonyl]-1-((2R)-3-cyclopentyl-2-{[formyl(hydroxy)amino]methyl}propanoyl)-3,3-dimethyl-L-prolinamide]
pIC50 [1]: ≥ 7.00

O=CN(O)C[C@@H](CC1CCCC1)C(=O)N1CCC[C@H]1C(=O)NC(=O)NCCn1cccn1 [Example 140, 1-((2R)-3-cyclopentyl-2-{[formyl(hydroxy)amino]methyl}propanoyl)-N-({[2-(1H pyrazol-1-yl)ethyl]amino}carbonyl)-L-prolinamide]
pIC50 [1]: ≥ 7.00

COCCNC(=O)NC(=O)[C@@H]1CCCN1C(=O)[C@H](CC1CCCC1)CN(O)C=O [Example 127, 1-((2R)-3-cyclopentyl-2-{[formyl(hydroxy)amino]methyl}propanoyl)-N-({[2-(methyloxy)ethyl]amino}carbonyl)-L-prolinamide]
pIC50 [1]: ≥ 7.00

N[C@H]1CC[C@H](OC(=O)NC(=O)[C@@H]2CCCN2C(=O)[C@H](CC2CCCC2)CN(O)C=O)CC1 [Example 19, N-{[(trans-4-aminocyclohexyl)oxy]carbonyl}-1-((2R)-3-cyclopentyl-2-{[formyl(hydroxy)amino]methyl}propanoyl)-L-prolinamide]
pIC50 [2]: ≥ 7.00

O=CN(O)C[C@@H](CC1CCCC1)C(=O)N1CCC[C@H]1C(=O)NC(=O)NC1CCC1 [Example 113, N-[(cyclobutylamino)carbonyl]-1-((2R)-3-cyclopentyl-2-{[formyl(hydroxy)amino]methyl}propanoyl)-L-prolinamide]
pIC50 [1]: ≥ 7.00

O=CN(O)C[C@@H](CC1CCCC1)C(=O)N1CCC[C@H]1C(=O)NC(=O)OCc1cc2c(cn1)OCCO2 [Example 30, 2,3-dihydro[1,4]dioxino[2,3-c]pyridin-7-ylmethyl[1-((2R)-3-cyclopentyl-2-{[formyl(hydroxy)amino]methyl}propanoyl)-L-prolyl]carbamate]
pIC50 [1]: ≥ 7.00

N#Cc1cccc(C(=O)NC(=O)[C@@H]2CCCN2C(=O)[C@H](CC2CCCC2)CN(O)C=O)c1 [Example 14, N-[(3-cyanophenyl)carbonyl]-1-((2R)-3-cyclopentyl-2-{[formyl(hydroxy)amino]methyl}propanoyl)-L-prolinamide]
pIC50 [2]: ≥ 7.00

CC(=O)NC(=O)[C@@H]1CCCN1C(=O)[C@H](CC1CCCC1)CN(O)C=O [Example 2, N-acetyl-1-((2R)-3-cyclopentyl-2-{[formyl(hydroxy)amino]methyl}propanoyl)-L-prolinamide]
pIC50 [2]: ≥ 7.00

CC(=O)Nc1ccc(C(=O)NC(=O)[C@@H]2CCCN2C(=O)[C@H](CC2CCCC2)CN(O)C=O)cc1 [Example 4, N-{[4-(acetylamino)phenyl]carbonyl}-1-((2R)-3-cyclopentyl-2-{[formyl(hydroxy)amino]methyl}propanoyl)-L-prolinamide]
pIC50 [1]: ≥ 7.00

O=CN(O)C[C@@H](CC1CCCC1)C(=O)N1CCC[C@H]1C(=O)NC(=O)NCCN1CCCCC1 [Example 103, 1-((2R)-3-cyclopentyl-2-{[formyl(hydroxy)amino]methyl}propanoyl)-N-({[2-(1-piperidinyl)ethyl]amino}carbonyl)-L-prolinamide formate]
pIC50 [2]: ≥ 7.00

CC(C)(C)NC(=O)NC(=O)[C@@H]1CCCN1C(=O)[C@H](CC1CCCC1)CN(O)C=O [Example 63, 1-((2R)-3-cyclopentyl-2-{[formyl(hydroxy)amino]methyl}propanoyl)-N-{[(1,1-dimethylethyl)amino]carbonyl}-L-prolinamide]
pIC50 [1]: ≥ 7.00

CC(C)(C)C(=O)NC(=O)[C@@H](NC(=O)[C@H](CC1CCCC1)CN(O)C=O)C(C)(C)C [Example 67, N^2-((2R)-3-cyclopentyl-2-{[formyl(hydroxy)amino]methyl}propanoyl)-N^1-(2,2-dimethylpropanoyl)-3-methyl-L-valinamide]
pIC50 [1]: ≥ 7.00

CC(C)CC(=O)NC(=O)[C@@H]1CCCN1C(=O)[C@H](CC1CCCC1)CN(O)C=O [Example 50, 1-((2R)-3-cyclopentyl-2-{[formyl(hydroxy)amino]methyl}propanoyl)-N-(3-methylbutanoyl)-L-prolinamide]
pIC50 [1]: ≥ 7.00

CN(C)CCCNC(=O)NC(=O)[C@@H]1CCCN1C(=O)[C@H](CC1CCCC1)CN(O)C=O [Example 96, 1-((2R)-3-cyclopentyl-2-{[formyl(hydroxy)amino]methyl}propanoyl)-N-({[3-(dimethylamino)propyl]amino}carbonyl)-L-prolinamide]
pIC50 [1]: ≥ 7.00

O=CN(O)C[C@@H](CC1CCCC1)C(=O)N1CCC[C@H]1C(=O)NC(=O)C1CCCC1 [Example 57, N-(cyclopentylcarbonyl)-1-((2R)-3-cyclopentyl-2-{[formyl(hydroxy)amino]methyl}propanoyl)-L-prolinamide]
pIC50 [1]: ≥ 7.00

COC[C@H](C)OC(=O)NC(=O)[C@H]1N(C(=O)[C@H](CC2CCCC2)CN(O)C=O)CCC1(C)C [Example 124, 1-((2R)-3-cyclopentyl-2-{[formyl(hydroxy)amino]methyl}propanoyl)-3,3-dimethyl-N-({[(1S)-1-methyl-2-(methyloxy)ethyl]oxy}carbonyl)-L-prolinamide]
pIC50 [1]: ≥ 7.00

CC1(C)CCN(C(=O)[C@H](CC2CCCC2)CN(O)C=O)[C@@H]1C(=O)NC(=O)OC1CCOCC1 [Example 126, 1-((2R)-3-cyclopentyl-2-{[formyl(hydroxy)amino]methyl}propanoyl)-3,3-dimethyl-N-[(tetrahydro-2H-pyran-4-yloxy)carbonyl]-L-prolinamide]
pIC50 [1]: ≥ 7.00

O=CN(O)C[C@@H](CC1CCCC1)C(=O)N1CCC[C@H]1C(=O)NC(=O)N1CCOCC1 [Example 13, N-[1-((2R)-3-cyclopentyl-2-{[formyl(hydroxy)amino]methyl}propanoyl)-L-prolyl]-4-morpholinecarboxamide]
pIC50 [1]: ≥ 7.00

CNC(=O)NC(=O)[C@H]1N(C(=O)[C@H](CC2CCCC2)CN(O)C=O)CCC1(C)C [Example 118, 1-((2R)-3-cyclopentyl-2-{[formyl(hydroxy)amino]methyl}propanoyl)-3,3-dimethyl-N-[(methylamino)carbonyl]-L-prolinamide]
pIC50 [1]: ≥ 7.00

Cc1c(CNC(=O)NC(=O)[C@@H]2CCCN2C(=O)[C@H](CC2CCCC2)CN(O)C=O)cnn1C [Example 100, 1-((2R)-3-cyclopentyl-2-{[formyl(hydroxy)amino]methyl}propanoyl)-N-({[(1,5-dimethyl-1H-pyrazol-4-yl)methyl]amino}carbonyl)-L-prolinamide]
pIC50 [1]: ≥ 7.00

O=CN(O)C[C@@H](CC1CCCC1)C(=O)N1CCC[C@H]1C(=O)NC(=O)OC1CCCC1 [Example 25, 1-((2R)-3-cyclopentyl-2-{[formyl(hydroxy)amino]methyl}propanoyl)-N-[(cyclopentyloxy)carbonyl]-L-prolinamide]
pIC50 [1]: ≥ 7.00

O=CN(O)C[C@@H](CC1CCCC1)C(=O)N1CCC[C@H]1C(=O)NC(=O)NCCCN1CCOCC1 [Example 101, 1-((2R)-3-cyclopentyl-2-{[formyl(hydroxy)amino]methyl}propanoyl)-N-({[3-(4-morpholinyl)propyl]amino}carbonyl)-L-prolinamide]
pIC50 [1]: ≥ 7.00

O=CN(O)C[C@@H](CC1CCCC1)C(=O)N1CCC[C@H]1C(=O)NC(=O)O[C@H]1CCOC1 [Example 40, 1-((2R)-3-cyclopentyl-2-{[formyl(hydroxy)amino]methyl}propanoyl)-N-{[(3S)-tetrahydro-3-furanyloxy]carbonyl}-L-prolinamide]
pIC50 [1]: ≥ 7.00

Nc1ncc(CCNC(=O)NC(=O)[C@@H]2CCCN2C(=O)[C@H](CC2CCCC2)CN(O)C=O)cc1Cl [Example 132, N-({[2-(6-amino-5-chloro-3-pyridinyl)ethyl]amino}carbonyl)-1-((2R)-3-cyclopentyl-2-{[formyl(hydroxy)amino]methyl}propanoyl)-L-prolinamide]
pIC50 [1]: ≥ 7.00

O=CN(O)C[C@@H](CC1CCCC1)C(=O)N1CCC[C@H]1C(=O)NC(=O)NCC1CCCO1 (stereo partly drawn) [Example 112, 1-((2R)-3-cyclopentyl-2-{[formyl(hydroxy)amino]methyl}propanoyl)-N-{[(tetrahydro-2-furanylmethyl)amino]carbonyl}-L-prolinamide]
pIC50 [1]: ≥ 7.00

CC1(C)CCN(C(=O)[C@H](CC2CCCC2)CN(O)C=O)[C@@H]1C(=O)NC(=O)OC1COC1 [Example 120, 1-((2R)-3-cyclopentyl-2-{[formyl(hydroxy)amino]methyl}propanoyl)-3,3-dimethyl-N-[(3-oxetanyloxy)carbonyl]-L-prolinamide]
pIC50 [1]: ≥ 7.00

O=CN(O)C[C@@H](CC1CCCC1)C(=O)N1CCC[C@H]1C(=O)NC(=O)NCC1COc2ccccc2O1 (stereo partly drawn) [Example 133, 1-((2R)-3-cyclopentyl-2-{[formyl(hydroxy)amino]methyl}propanoyl)-N-{[(2,3-dihydro-1,4-benzodioxin-2-ylmethyl)amino]carbonyl}-L-prolinamide]
pIC50 [1]: ≥ 7.00

CCCCC[C@H](CN(O)C=O)C(=O)N1CCC[C@H]1C(=O)NC(=O)NCC [Example 65, N-[(ethylamino)carbonyl]-1-((2R)-2-{[formyl(hydroxy)amino]methyl}heptanoyl)-L-prolinamide]
pIC50 [1]: ≥ 7.00

O=CN(O)C[C@@H](CC1CCCC1)C(=O)N1CCC[C@H]1C(=O)NC(=O)c1c(F)cccc1F [Example 18, 1-((2R)-3-cyclopentyl-2-{[formyl(hydroxy)amino]methyl}propanoyl)-N-[(2,6-difluorophenyl)carbonyl]-L-prolinamide]
pIC50 [2]: ≥ 7.00

From patent publication US7982053B2, “Peptide deformylase inhibitors” (GlaxoSmithKline LLC, priority 2005, dated 2011)
